Source: patent publication US9072712B2, “Synergistic antimicrobial preparations containing chlorite and hydrogen peroxide” (priority 1999, dated 2015)
For at least one compound, name, drawing or mass did not settle the structure.

Tests used:
psoriasis plaques [1] = test: Treatment of psoriasis, crossover; type: in vivo, human; conditions: first two week treatment period, twice daily
psoriasis plaques [2] = test: Treatment of psoriasis, no crossover; type: in vivo, human; conditions: twice daily topical application, two week treatment period

## CC1(C)O[C@@H]2C[C@H]3[C@@H]4CCC5=CC(=O)C=C[C@]5(C)[C@@]4(F)[C@@H](O)C[C@]3(C)[C@]2(C(=O)CO)O1 [triamcinolone acetonide]
Psoriasis plaques [1]
  outcome of psoriatic plaques: remained unchanged and inflamed
Psoriasis plaques [2]
  outcome of psoriatic plaques: remained unchanged and inflamed
